# Reference: the supplement of paper PMC3334620
# The full ranking holds about 33,000 sequences; the median of “E-score (-0.5 to 0.5)” is about -0.0059, and the highest 2% start at about 0.26. The list shows a part of the results.
# Molecular target: T1, Cin5 (UniProt P40917)
# T1 sequence: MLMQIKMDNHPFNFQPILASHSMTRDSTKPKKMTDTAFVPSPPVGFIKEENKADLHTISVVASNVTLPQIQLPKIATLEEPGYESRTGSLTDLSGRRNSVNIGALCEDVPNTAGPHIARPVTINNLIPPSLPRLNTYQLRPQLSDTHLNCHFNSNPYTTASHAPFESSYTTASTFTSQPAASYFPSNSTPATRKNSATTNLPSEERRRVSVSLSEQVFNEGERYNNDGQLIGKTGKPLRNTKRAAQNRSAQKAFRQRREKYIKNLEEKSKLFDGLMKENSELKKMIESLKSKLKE
# Assay: PBM E-score (8-mer binding enrichment) (E-score (-0.5 to 0.5)); higher = stronger / more preferred TF binding
# Details: protein concentration: 100 nM; construct: GST-full length
# In short: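 Universal all-10-mer Agilent arrays, double-stranded by primer extension on fresh or once-stripped slides, were probed with about 100-200 nM GST-tagged yeast transcription factors made by PURExpress. Fluorescent anti-GST detected bound protein, and masliner normalised the scans. E-scores from the Universal PBM Analysis Suite were given to each ungapped eight-base word pooled with its reverse complement.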
row,Sequence,PBM E-score
1,AAGACTCG,-0.0863
2,CAAGACCC,-0.218
3,CAGCGCAG,-0.0299
4,CACGCTGA,0.0116
5,AGCACAAC,0.161
6,ACCGAACT,-0.101
7,CTGGTTTC,0.0335
8,AAGGCTGA,-0.0563
9,AAATTGTG,0.0281
10,AAGAACAC,0.00844
11,CAGTGCAC,-0.107
12,AAAAACAC,0.0623
13,ACCTGACC,-0.0495
14,GACCCCAC,0.0467
15,GAGAACCC,-0.19
16,ATACTTTG,0.2
17,GGTCGTGA,-0.12
18,TCAATGGA,-0.00944
19,CTCTTATA,0.147
20,AATTATCT,0.331
21,AGATGCAG,0.00347
22,GTAGCGTA,0.084
23,AGTGTGCA,0.0784
24,ACGTTGAT,0.17
25,CTGGCGGC,-0.115

row,Sequence,PBM E-score
1,CAAGACGA,-0.0306
2,CATAGGTA,-0.00172
3,ACAGCCCA,-0.0887
4,ATTTGAGC,0.0476
5,CCGACCGG,-0.211
6,CGATGCAA,0.043
7,ATGACATA,0.296
8,ATTCGATG,-0.0175
9,ATCGCTCA,0.0669
10,ACCATGGC,-0.00051
11,CCATCCCG,-0.073
12,AAAAGATA,0.0936
13,CTTATCCA,0.221
14,AACCGATA,0.146
15,TATCTCAA,0.261
16,AACTCCTG,-0.131
17,GATTTGCA,0.111
18,CGAGACCG,-0.157
19,GGCAATAC,0.136
20,GCCTTCGA,-0.109
21,AGTGGAAA,0.0448
22,AAGCAGAC,0.0637
23,CTTCATAC,0.165
24,ATCAACAC,0.191
25,ACATCTAG,0.101

row,Sequence,PBM E-score
1,TCTAGACA,0.0397
2,CTGAAAGA,-0.137
3,CCGTGCGA,0.0387
4,ATCGGGCC,-0.133
5,GCGAGTCC,-0.157
6,CTGTCGCC,0.0178
7,CGCCTGGA,-0.0759
8,GAGCTCTA,0.0676
9,CTTGAGCC,-0.241
10,AATCAACA,0.348
11,ACGTAAGA,0.347
12,TAATTCAA,0.0887
13,GACTCGAA,-0.184
14,GATGGCGC,-0.099
15,CGTGGATC,0.0485
16,ATAGGCAT,-0.0318
17,CTGTCAAA,-0.0972
18,GTCACACA,0.0464
19,ACTACTAT,0.26
20,CACTTTGG,0.00445
21,TCGATAAA,0.0574
22,CATCTAAG,0.0787
23,AGACCTAC,-0.178
24,AGGGGTTA,-0.062
25,GCCTTCAC,-0.0734

row,Sequence,PBM E-score
1,CAAATTGG,0.177
2,AAATGGGA,-0.0605
3,GCGAAAAA,0.152
4,AGACGGCC,-0.13
5,CCTAGCTC,-0.124
6,TAATCGAA,0.241
7,AGACCCTG,-0.0767
8,AACATGCA,0.151
9,GGTTTTAA,0.0958
10,CCACTGCA,-0.0478
11,CAAGATGG,-0.0761
12,GGCTTGAA,-0.0909
13,CCAACCCG,-3e-05
14,GGTGTGAA,0.133
15,CGTTGCAG,-0.141
16,CCTAATAG,-0.0619
17,ACATTAGA,-0.107
18,GTGCTTTA,0.03
19,CACACATG,-0.103
20,GAGAGCGA,-0.0892
21,CCTTTGCC,-0.191
22,AATTCGTA,0.0723
23,CCGGTTGC,0.00629
24,ACACCGTG,-0.204
25,AATGGCGA,0.203

row,Sequence,PBM E-score
1,AGTTGGAT,0.0885
2,CGACATAC,0.104
3,AGTTACAC,0.154
4,GCAGGATA,0.00852
5,GACGGCAC,-0.212
6,ATATAGAG,0.052
7,CAGAATCG,0.00783
8,ACCTCCTA,-0.291
9,ATTCCCTC,-0.06
10,AAGCGGGT,-0.0601
11,GAACAGAA,0.0474
12,CCTTAAGA,-0.132
13,GTAAAGTA,0.305
14,AACCAGAG,-0.0306
15,CAAGTGTC,-0.0882
16,GCACGACC,-0.188
17,CCAATGTA,-0.0976
18,CGTTACTC,-0.175
19,CCGGTTAA,-0.0923
20,CGCAGGTA,-0.101
21,AGCCGGAC,0.0365
22,CGCCCCCC,-0.39
23,GGGGAGAA,-0.0915
24,ATTTATAC,0.253
25,AATTGGCC,0.0108

# Single values from the results shown.
# For PBM E-score, GGCAATAC is listed with 0.136
# For PBM E-score, CGTTACTC is listed with -0.175
# For PBM E-score, GGCTTGAA is listed with -0.0909
# For PBM E-score, CCAATGTA is listed with -0.0976
# For PBM E-score, ACACCGTG is listed with -0.204

# (further entries)

row,Sequence,PBM E-score
1,GCCTTCCA,-0.0984
2,TATCATGA,0.0928
3,GACCCGAC,-0.102
4,CCAAACGG,-0.0382
5,ACCTTATA,0.0747
6,ACCTAGAA,0.00041
7,ATACAGCG,-0.0913
8,CTTATAAC,0.191
9,ACGAGTAA,0.214
10,GCTCAGTA,0.0273
11,AAAGTTTG,0.122
12,CTACCCAC,-0.0866
13,CTCGGCCA,-0.0115
14,ACAATTCA,0.0301
15,TCCTGTAA,0.0685
16,ATGTATTC,0.104
17,ACACCTGC,0.153
18,CTGCGAGA,-0.332
19,ACCTACTG,-0.0553
20,ACTGCTGG,-0.217
21,CGTGCACC,-0.165
22,GATCACCC,-0.0358
23,CGGAATTC,0.12
24,ACCGTGCC,-0.119
25,CTTATTAC,0.236

row,Sequence,PBM E-score
1,CCCGGGCG,-0.133
2,ACGTACTG,-0.0153
3,CACGTAGG,-0.128
4,ACGTGCTC,-0.119
5,CAGAAGCA,0.0999
6,ATACTAAC,0.166
7,ACGGCTCA,0.0209
8,AGCGAGAA,-0.0355
9,ACGTATCG,-0.015
10,CGCAGTGC,-0.175
11,TCAACAGA,0.106
12,TAGACCGA,-0.0533
13,CCTCATTC,0.0225
14,ATGCGTCA,0.00854
15,GCCTAATA,0.0511
16,ATCGTATG,0.156
17,CTATAAAA,-0.0202
18,CCAACGAA,0.0174
19,CTGAACCC,-0.0956
20,GCGACAAC,0.0474
21,AAGTAACC,0.106
22,GTACTCCA,-0.091
